# Results reported in PubChem BioAssay AID485314 (National Center for Advancing Translational Sciences (NCATS), 2010).
# The whole screen tested about 340,000 compounds, of which about 4,500 (1.3%) were called active. This list was built around the results that the source calls inconclusive (neither active nor inactive); the mix of calls is not that of the screen. Calls come from the whole dose curve; as a rule, active = well fitted inhibition curve with a large enough effect; inconclusive = small, poorly fitted or top-dose-only effect, or another doubt; inactive = no such curve, though single readings can be large or run the other way. A potency beside an inconclusive call is a rough fit, not a confirmed value.
# Target: DNA polymerase beta (Homo sapiens) (UniProt P06746)
# Assay: qHTS Assay for Inhibitors of DNA Polymerase Beta
# Conditions: Pol beta primer extension/strand displacement, fluorescence kinetic; activity change, negative = inhibition: at 114 µM (top of the series)
# Procedure, shortened: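 10 nM enzyme + cpd, 15 min RT; start with substrate 50 nM final; read 0 min and after 10 min RT. Corrected, normalized data; 4-parameter Hill curve fit.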
# % is set by controls: 0 for no effect and ±100 for the full control effect; potency is the fitted concentration of half-maximal effect.
SMILES,Potency,"activity change, negative = inhibition"
COc1ccc(C2(C(=O)Nc3ccc(C(=O)O)cc3)CCOCC2)cc1,"inconclusive: 89.1 µM [inhibitor, single point]",–
COc1ccc(C)cc1NC(=O)Cn1c(=O)cc(C)c2c(C)nn(C)c21,inactive,–
CC(=O)N1N=C(c2ccccc2)CC1c1ccc2c(c1)OCO2 (stereo not drawn),inactive,–
CC(=O)N1CCC2(CC1)OC(=O)C(C)=C2C(=O)Nc1cc(C)ccc1C,"inconclusive: 0.708 µM [inhibitor, full curve]",–
CCn1c(=O)n(-c2ccc(F)cc2)c(=O)c2sc3ccccc3c21,inactive,–
COc1cc(/C=C2\C(=O)NN(c3ccc(C)cc3)C2=O)cc([N+](=O)[O-])c1O,"inconclusive: 35.5 µM [inhibitor, partial curve]",–
CCN(CC)c1cc(C)c(C#N)c2nc3ccccc3n12,"inconclusive: 89.1 µM [inhibitor, single point]",–
COc1ccc(Cl)cc1NC(=O)Cn1c(=O)n(Cc2cccs2)c(=O)c2cccnc21,inactive,–
COc1ccc(CNC(=O)Cc2c(C)c3c(cc(C)c4c(C)coc43)oc2=O)cc1OC,inactive,–
CCOC(=O)c1c(C(C#N)C#N)cc(C)nc1C,"inconclusive: 0.112 µM [inhibitor, full curve, poor fit]",–
O=C1NN(c2ccccc2)C(=O)/C1=C\c1cccn1-c1ccc(Cl)c([N+](=O)[O-])c1,"inconclusive: 39.8 µM [inhibitor, full curve, poor fit]",–
COc1ccc(Br)c2c1-c1nc(NC(=O)c3ccccc3F)sc1C2,"inconclusive: 1.78 µM [inhibitor, full curve]",–
Cc1ccc(S(=O)(=O)N2CCOCC2)cc1C(=O)NCc1cccs1,"inconclusive: 56.2 µM [inhibitor, partial curve]",–
CC(=O)Nc1ccc(NC(=O)c2ccc(COc3ccc(C)cc3)o2)cc1,"inconclusive: 0.355 µM [inhibitor, full curve, poor fit]",–
O=C(O)c1ccc(NC2=C(Cl)C(=O)c3ccccc3C2=O)cc1,inactive,–
Cc1ccc(C)c(Cn2c3ccccc3c3cnn(CC(=O)NC4CCC(C)CC4)c(=O)c32)c1 (stereo not drawn),inactive,–
Cc1cc2nn(-c3ccccc3)nc2cc1NC(=O)COc1ccc(Cl)cc1,inactive,–
O=C(O)C1Nc2c(O)cc(Cl)c([N+](=O)[O-])c2C2C=CCC12 (stereo not drawn),active: 0.251 µM,–
Cc1ccc2c3c(cccc13)-c1ccccc1C2=O,inactive,–
CC(C)C(=O)Nc1cccc(C(=O)Nc2ccc3c(c2)OCO3)c1,"inconclusive: 2.82 µM [inhibitor, partial curve]",–
O=C(O)c1ccc(Nc2nc3ccc(Cl)cc3[nH]2)cc1,"inconclusive: 79.4 µM [inhibitor, single point]",–
O=C(CN1CC(=O)Oc2ccccc21)OCC(=O)c1cccc(Br)c1,"inconclusive: 1.58 µM [inhibitor, full curve]",–

SMILES,Potency,"activity change, negative = inhibition"
CC1CCCN(C2=C(NS(=O)(=O)c3ccc(Cl)cc3)C(=O)c3ccccc3C2=O)C1 (stereo not drawn),"inconclusive: 89.1 µM [inhibitor, single point]",–
CC(C)(CO)NC(=O)CC1C(=O)NCCN1CC(c1ccccc1)c1ccccc1 (stereo not drawn),"inconclusive: 15.8 µM [inhibitor, partial curve, poor fit]",–
COc1ccc2[nH]c3c(N4CCc5ccccc5C4)ncnc3c2c1,–,inconclusive: -38.6% [inhibitor]
CNS(=O)(=O)c1cccc(C(=O)NNC(=O)c2ccc(COc3ccccc3)cc2)c1,"inconclusive: 25.1 µM [inhibitor, full curve, poor fit]",–
CCc1nn(CC(=O)N2CCC(C(N)=O)CC2)c(=O)c2cc3occc3n12,"inconclusive: 0.282 µM [inhibitor, full curve, poor fit]",–
O=C(CCCN1C(=O)c2cccc3cccc(c23)C1=O)N1CCN(c2ccc(F)cc2)CC1,"inconclusive: 4.47 µM [inhibitor, full curve]",–
CN(Cc1cn(C)nc1-c1ccc(Oc2ccccc2)cc1)Cc1cnc2ccccn12,"inconclusive: 89.1 µM [inhibitor, single point]",–
COc1ccc2nc(SCC(=O)Nc3ccc4c(c3)OCCO4)[nH]c2c1,"inconclusive: 44.7 µM [inhibitor, partial curve]",–
COc1ccc(N2CCN(c3oc(COc4ccc(Cl)cc4Cl)nc3C#N)CC2)cc1,inactive,–
CCCCC1(C)OC(=O)C(=Cc2ccc(-c3ccc(Cl)c(C(=O)O)c3)o2)C(=O)O1 (stereo not drawn),active: 15.8 µM,–
COc1ccccc1NC(=O)CCSc1nc(C)cs1,"inconclusive: 20 µM [inhibitor, single point]",–
O=C(Cc1ccccc1)Nc1ccc(NC(=O)c2ccco2)cc1Cl,"inconclusive: 0.891 µM [inhibitor, full curve]",–
COc1ccc(OC)c(NC(=O)c2c(NCc3sccc3C)sc3c2CCCCC3)c1,"inconclusive: 100 µM [inhibitor, single point]",–
CCCCCCCCCCCCC/C=C/[C@@H](O)[C@@H](N)CO,"inconclusive: 35.5 µM [inhibitor, single point]",–
Cc1nn(-c2ccccc2)c(NC(=O)c2cccs2)c(-c2ccc(Cl)cc2)c1=O,"inconclusive: 4.47 µM [inhibitor, full curve, poor fit]",–
COc1ccccc1NC(=O)COC(=O)c1ccc([N+](=O)[O-])s1,active: 7.08 µM,–
S=C(Nc1ccc2nsnc2c1)N1CCCCCC1,"inconclusive: 28.2 µM [inhibitor, single point]",–
CC(C)OC(=O)Nc1ccc2c(c1)N(C(=O)CCN1CCOCC1)c1ccccc1CC2,"inconclusive: 3.16 µM [inhibitor, full curve, poor fit]",–
Clc1ccc(-c2ccn[nH]2)cc1,"inconclusive: 100 µM [inhibitor, single point]",–
CCOC(=O)C1CCCN(C(=O)C2CCN(S(=O)(=O)c3c(C)noc3/C=C/c3ccccc3F)CC2)C1 (stereo not drawn),"inconclusive: 6.31 µM [inhibitor, full curve, poor fit]",–
CC(C)OC(=O)C(C(=O)C(F)(F)F)c1cc(NS(=O)(=O)c2ccc3c4c(cccc24)C(=O)N3)ccc1O (stereo not drawn),"inconclusive: 63.1 µM [inhibitor, single point]",–

# Some of these compounds in order of count of non-hydrogen atoms, low to high:
SMILES,Potency,"activity change, negative = inhibition"
CC(=O)Nc1ccc(NC(=O)c2ccc(COc3ccc(C)cc3)o2)cc1,"inconclusive: 0.355 µM [inhibitor, full curve, poor fit]",–
CC(C)(CO)NC(=O)CC1C(=O)NCCN1CC(c1ccccc1)c1ccccc1 (stereo not drawn),"inconclusive: 15.8 µM [inhibitor, partial curve, poor fit]",–
Cc1ccc(C)c(Cn2c3ccccc3c3cnn(CC(=O)NC4CCC(C)CC4)c(=O)c32)c1 (stereo not drawn),inactive,–
